# Measurements as given in the supplement of paper PMC6331611.
# Where “and” joins values, the source holds several entries; their conditions need not be identical. Equal entries are not always repeated. ± gives the standard deviation of the averaged measurements. Whole data set: some 1,600 compounds, median “normalized intracellular growth (luminescence, IQM-normalized) in RAW264.7 macrophages” near 1, cut for the lowest 2% near 0.43. The list shows a part of the results.
# Tested on: Salmonella enterica serovar Typhimurium SL1344
# Experiment: normalized intracellular growth (luminescence, IQM-normalized) in RAW264.7 macrophages (fraction of plate interquartile mean); higher = more bacterial growth (less inhibition)
# Details: 10 µM
SMILES,normalized intracellular growth (time point: T3 (3 h)),normalized intracellular growth (time point: Tfinal (~6 h))
CCOC(=O)[C@H](CCc1ccccc1)N[C@@H](C)C(=O)N1CCC[C@H]1C(=O)O,1.03 ± 0.029,0.918 ± 0.36
Cn1nnnc1SCC1=C(C(=O)O)N2C(=O)[C@@H](NC(=O)[C@H](OC=O)c3ccccc3)[C@H]2SC1,0.866 ± 0.094,0.979 ± 0.024
CC(=O)Nc1ccc(O)cc1,1.06 ± 0.021,1.09 ± 0.045
O=S(=O)(O)CCCS(=O)(=O)O,1.01 ± 0.095,0.9 ± 0.34
COc1ccc2[nH]c([S+]([O-])Cc3ncc(C)c(OC)c3C)nc2c1 (centres undefined),1.06 ± 0.07,0.977 ± 0.23
CCCCC(CC)CN=C(N)N=C(N)NCCCCCCNC(N)=NC(N)=NCC(CC)CCCC (centres undefined),0.994 ± 0.063,1.1 ± 0.035
Cc1ccccc1N1C(=O)c2cc(S(N)(=O)=O)c(Cl)cc2NC1C (centres undefined),0.999 ± 0.076,1.22 ± 0.059
Cc1cc(-n2c(=O)[nH]c(=O)n(C)c2=O)ccc1Oc1ccc(SC(F)(F)F)cc1,1.05 ± 0.071,0.715 ± 0.13
CC(C)COC(=O)c1ccc(N)cc1,1.01 ± 0.068,0.971 ± 0.071
OCCOCCN1CCN(C(c2ccccc2)c2ccc(Cl)cc2)CC1 (centres undefined),1.01 ± 0.06,1.02 ± 0.024
Nc1cc(-c2ccncc2)c[nH]c1=O,0.998 ± 0.044,0.977 ± 0.12
COC(=O)C(N)CS (centres undefined),1.05 ± 0.053,0.788 ± 0.092
CC(N)C12CC3CC(CC(C3)C1)C2 (centres undefined),1.05 ± 0.013,0.989 ± 0.13
CN(C)CC[C@@H](c1ccc(Cl)cc1)c1ccccn1,1 and 1.05,1.01 and 0.736
CN(CCOc1ccc(CC2SC(=O)NC2=O)cc1)c1ccccn1 (centres undefined),0.993 ± 0.055,0.982 ± 0.025
CCCc1nc(C(C)(C)O)c(C(=O)O)n1Cc1ccc(-c2ccccc2-c2nnn[nH]2)cc1,1.027 ± 0.0089,1.118 ± 0.0057
O=C(OCc1ccccc1)c1ccccc1,0.966 ± 0.057,0.928 ± 0.069
OC(CCN1CCCCC1)(c1ccccc1)C1CCCCC1 (centres undefined),0.817 ± 0.033,0.993 ± 0.087
Cc1ccc2c(Cl)cc(Cl)c(O)c2n1,0.97 ± 0.027,1.07 ± 0.15
N=C(N)N/N=C/c1c(Cl)cccc1Cl,0.985 ± 0.086,1.09 ± 0.055
CN(C)CCOC(=O)COc1ccc(Cl)cc1,0.996 ± 0.047,1.04 ± 0.14
CC(Oc1ccccc1)C(=O)N[C@@H]1C(=O)N2[C@@H]1SC(C)(C)[C@@H]2C(=O)O (some centres undefined),1.23 ± 0.12,1.16 ± 0.066
